Patent US20090285898A1, “COMBINATION OF DEHYDROEPIANDROSTERONE OR DEHYDROEPIANDROSTERONE-SULFATE WITH AN ANTICHOLINERGIC BRONCHODILATOR FOR TREATMENT OF ASTHMA OR CHRONIC OBSTRUCTIVE PULMONARY DISEASE” (priority 2003, published 2009)
Values joined by “and” are separate entries in the source; they are usually repeats but may differ in a detail not shown here. Equal entries are not always repeated.

How the values were obtained:
[1] = Emitted dose studies with dry powder inhalers; conditions: micronized drug, individual experiments
[2] = Respirable dose studies (Andersen cascade impactor); conditions: 90 L/min

C[C@]12CC[C@H](OS(=O)(=O)[O-])CC1=CC[C@@H]1[C@@H]2CC[C@]2(C)C(=O)CC[C@@H]12.[Na+] [Anhydrous DHEA-S]
Emitted Dose (%) ([1]; Rotahaler (2nd study), 87.8 L/min): 16.0% and 24.5% and 53.9% | Emitted Dose (%) ([1]; Rotahaler, 30 L/min): 34.5% and 21.2% and 48.5% | increase in the respirable dose, spray-dried compared to micronized anhydrous DHEA-S [2]: two-fold increase
